Here are results for six molecules from patent publication US12583915.

Chains of the proteins cited; added tags and fusions are not shown. Lines headed by an entry give the natural chain unless they say otherwise; changes in a name come on top.
UniProt O95816: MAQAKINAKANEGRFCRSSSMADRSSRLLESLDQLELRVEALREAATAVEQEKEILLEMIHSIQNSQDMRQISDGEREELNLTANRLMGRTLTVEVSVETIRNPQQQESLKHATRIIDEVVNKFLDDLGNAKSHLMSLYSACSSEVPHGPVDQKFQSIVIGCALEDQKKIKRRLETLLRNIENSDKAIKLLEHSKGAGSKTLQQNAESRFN

Numbering of substitutions follows the chain as printed. Results are given in words; binding and its absence hold for the method and conditions named. Some entries that bind do so weakly or less than the wild type.

Assay [1] addresses human His-tagging BAG2 recombinant protein (human) (UniProt O95816). Nature of the assay: sandwich ELISA, standard curve for BAG2 protein; in the combinations named. A general note: An ELISA detects its analyte on a solid surface through an enzyme-linked reagent.
For assay [2] the target is unchanged. Nature of the assay: sandwich ELISA, standard curve for BAG2 protein; in combination 9B12-3G8.
The target is the same in assay [3]. Nature of the assay: sandwich ELISA, standard curve for BAG2 protein; in combination 9B3-3F12.
The target is the same in assay [4]. In words: sandwich ELISA, standard curve for BAG2 protein; in combination 2A11-3F12.
Assay [5] shares this target. Nature of the assay: sandwich ELISA, standard curve for BAG2 protein; in combination 3G8-8C4.

B1: 3G8 antibody (antibody, V domains shown)
VH: QIQLVQSGPELKKPGETVKISCKASGYSFTKYGMNWVKQAPGKDIKWMGWINTNTGEATYGEEVKGRFAFSLETSASTAYLQINNLKNEDTATYFCARLGLRYLDYWGQGTTLTVSS
VL: DIVMTQSPASLVVSLGQRATISCRASKSVSTSDYSYMHWYQQKPGQPPKVLIYLASNLESGVPARFSGSGSGTDFTLNIHPVEEEDAATYYCQHNRELPPTFGAGTKLELK
For B1, the binding entry in assay [1] is “binds”.

B2: 9B12 antibody (antibody, V domains shown)
VH: QVQLQQSGAELVRPGTSVKVSCKASGYAFTNYMIEWIKQRPGQGLEWIGVINPGSGGSYYNEKVKGKATLTADRSSSTAYMQFSSLTADDSGVYFCRIYGNYKGYFDHWGQGTTLTVSS
VL: DIVMTQSPSSMYASLGERVTITCKASQDMNSYLSWFQQKPGKSPKTLIYRANRLVDGVPSRFSGSGSGQDYSLTISSLEYEDMGIYYCLQNDEFPFTFGSGTKLEMK
In the case of B2, in assay [2], the binding entry was “binds”.

B3: 9B3 antibody (antibody, V domains shown)
VH: B2 VH with Q1E, R74K, G92A, H108Y
VL: B2 VL with M29I, M106I
In the case of B3, the binding result in assay [3] was “binds”.

B4: 2A11 antibody (antibody, V domains shown)
VH: QVQLQQPGAELVRPGASVTLSCKASGYTFTDYEMHWVKQTPVHGLEWIGIIDPETGGTAYNQKFKGKATLTADKSSSTAYMELRSLTSEDSAVYYCTRGKFYYSGRDYAMDYWGQGTSVTVSS
VL: DVLMTQTPLSLPVSLGDQASISCRSSQSIVHSNGNTYLEWYLQKPGQSPKLLIYKVSNRFSGVPDRFSGSGSGTDFTLKISRVEAEDLGVYFCFQGSQVPPTFGGGTKLEIK
For B4, the binding entry in assay [4] was “binds”.

B5: 8C4 antibody (antibody, V domains shown)
VH: B4 VH with G56A
VL: B4 VL with I53F
Take B5: in assay [5], the binding result is “binds”.

B6: 4C2 antibody (antibody, V domains shown)
VH: B4 VH with G57A
VL: B4 VL with I53F
For B6, the binding result in assay [1] is listed as “binds”.
